Measured values as given in article PMC10326514.
Results are given in words; binding and its absence hold for the method and conditions named. In cells and extracts the contact can be indirect. Some binding calls cover weakened binding; strength is not graded here. Blank lines part the entries; values can stand above or below the binder they belong to.

The chains behind the UniProt entries cited, without tags or fusion partners.
UniProt Q6ZTR5: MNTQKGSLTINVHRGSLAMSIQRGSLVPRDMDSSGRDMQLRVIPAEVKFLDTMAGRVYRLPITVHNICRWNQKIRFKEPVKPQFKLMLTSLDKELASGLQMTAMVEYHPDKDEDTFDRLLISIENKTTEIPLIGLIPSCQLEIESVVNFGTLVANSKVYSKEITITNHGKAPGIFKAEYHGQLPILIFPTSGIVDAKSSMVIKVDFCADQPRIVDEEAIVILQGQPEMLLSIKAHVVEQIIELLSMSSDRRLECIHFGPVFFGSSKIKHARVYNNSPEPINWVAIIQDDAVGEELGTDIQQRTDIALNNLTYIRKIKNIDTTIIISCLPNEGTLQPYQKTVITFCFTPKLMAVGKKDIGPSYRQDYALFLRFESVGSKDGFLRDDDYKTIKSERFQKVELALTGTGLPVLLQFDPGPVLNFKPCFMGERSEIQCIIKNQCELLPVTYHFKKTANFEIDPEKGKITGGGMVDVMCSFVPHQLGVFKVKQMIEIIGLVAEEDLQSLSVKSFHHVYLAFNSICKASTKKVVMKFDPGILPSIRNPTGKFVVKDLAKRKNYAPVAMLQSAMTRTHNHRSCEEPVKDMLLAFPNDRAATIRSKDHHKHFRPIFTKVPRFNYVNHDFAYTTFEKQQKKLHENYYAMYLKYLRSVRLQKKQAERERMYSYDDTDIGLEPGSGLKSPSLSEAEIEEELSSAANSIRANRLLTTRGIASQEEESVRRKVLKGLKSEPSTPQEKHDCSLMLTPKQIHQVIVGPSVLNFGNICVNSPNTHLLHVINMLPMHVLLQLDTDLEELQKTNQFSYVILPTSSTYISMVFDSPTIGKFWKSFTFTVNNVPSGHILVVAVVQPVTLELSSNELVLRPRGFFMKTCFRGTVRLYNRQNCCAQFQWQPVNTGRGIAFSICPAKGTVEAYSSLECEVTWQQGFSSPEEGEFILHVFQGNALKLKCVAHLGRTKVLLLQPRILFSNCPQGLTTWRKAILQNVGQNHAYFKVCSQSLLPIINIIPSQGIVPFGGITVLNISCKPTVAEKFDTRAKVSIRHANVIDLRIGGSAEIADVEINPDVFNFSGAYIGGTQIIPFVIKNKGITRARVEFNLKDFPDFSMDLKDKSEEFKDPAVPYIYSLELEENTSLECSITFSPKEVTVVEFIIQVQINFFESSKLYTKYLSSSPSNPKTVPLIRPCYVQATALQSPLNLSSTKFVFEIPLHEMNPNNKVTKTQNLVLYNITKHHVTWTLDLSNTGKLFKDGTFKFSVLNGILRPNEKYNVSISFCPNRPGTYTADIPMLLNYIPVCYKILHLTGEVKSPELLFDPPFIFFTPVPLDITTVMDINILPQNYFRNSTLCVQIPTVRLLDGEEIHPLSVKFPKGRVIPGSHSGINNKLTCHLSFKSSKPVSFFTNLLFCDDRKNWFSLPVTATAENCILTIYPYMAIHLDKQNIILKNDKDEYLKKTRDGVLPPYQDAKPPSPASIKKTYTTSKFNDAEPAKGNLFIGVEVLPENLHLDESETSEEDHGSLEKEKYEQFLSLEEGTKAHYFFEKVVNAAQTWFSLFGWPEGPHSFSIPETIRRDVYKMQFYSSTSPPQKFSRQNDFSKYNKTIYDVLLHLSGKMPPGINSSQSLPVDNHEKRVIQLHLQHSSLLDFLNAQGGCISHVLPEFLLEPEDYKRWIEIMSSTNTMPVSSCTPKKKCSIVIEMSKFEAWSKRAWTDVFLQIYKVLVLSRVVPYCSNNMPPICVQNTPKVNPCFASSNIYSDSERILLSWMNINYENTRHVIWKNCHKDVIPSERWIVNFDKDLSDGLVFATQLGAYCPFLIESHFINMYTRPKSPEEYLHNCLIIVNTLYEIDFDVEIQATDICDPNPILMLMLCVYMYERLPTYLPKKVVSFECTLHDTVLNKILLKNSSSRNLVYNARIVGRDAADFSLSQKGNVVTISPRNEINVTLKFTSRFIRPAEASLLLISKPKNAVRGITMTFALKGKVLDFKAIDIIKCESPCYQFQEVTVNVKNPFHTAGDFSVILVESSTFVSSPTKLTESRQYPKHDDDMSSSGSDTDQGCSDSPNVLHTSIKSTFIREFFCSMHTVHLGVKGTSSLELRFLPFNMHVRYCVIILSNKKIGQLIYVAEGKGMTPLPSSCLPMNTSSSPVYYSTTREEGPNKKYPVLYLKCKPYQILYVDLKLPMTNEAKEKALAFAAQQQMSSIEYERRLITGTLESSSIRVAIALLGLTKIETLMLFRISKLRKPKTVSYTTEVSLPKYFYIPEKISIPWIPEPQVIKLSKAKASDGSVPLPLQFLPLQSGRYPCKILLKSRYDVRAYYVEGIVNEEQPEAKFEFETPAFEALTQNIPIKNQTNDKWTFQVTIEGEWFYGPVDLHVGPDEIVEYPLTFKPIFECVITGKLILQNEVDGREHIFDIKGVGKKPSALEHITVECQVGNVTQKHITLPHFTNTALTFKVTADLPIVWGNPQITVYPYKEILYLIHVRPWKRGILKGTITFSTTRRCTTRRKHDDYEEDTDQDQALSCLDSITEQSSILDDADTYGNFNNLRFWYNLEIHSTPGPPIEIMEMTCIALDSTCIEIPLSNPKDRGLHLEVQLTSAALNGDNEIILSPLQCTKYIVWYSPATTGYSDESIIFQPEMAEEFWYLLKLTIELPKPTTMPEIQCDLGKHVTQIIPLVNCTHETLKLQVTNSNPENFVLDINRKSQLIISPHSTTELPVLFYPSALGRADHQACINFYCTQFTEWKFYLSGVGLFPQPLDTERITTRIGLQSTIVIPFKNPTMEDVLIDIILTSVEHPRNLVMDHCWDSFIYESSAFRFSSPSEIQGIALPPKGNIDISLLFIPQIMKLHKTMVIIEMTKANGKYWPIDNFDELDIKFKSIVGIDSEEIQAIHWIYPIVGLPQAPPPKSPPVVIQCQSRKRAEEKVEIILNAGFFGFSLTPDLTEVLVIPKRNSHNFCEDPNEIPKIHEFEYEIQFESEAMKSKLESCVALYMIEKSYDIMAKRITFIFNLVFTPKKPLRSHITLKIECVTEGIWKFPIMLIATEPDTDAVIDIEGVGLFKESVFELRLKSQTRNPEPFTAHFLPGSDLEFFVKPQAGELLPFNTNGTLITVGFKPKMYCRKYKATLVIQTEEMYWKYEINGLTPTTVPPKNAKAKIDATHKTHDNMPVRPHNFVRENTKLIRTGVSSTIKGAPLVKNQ

Target: Cilia and flagella-associated protein 47 (human (endogenous in testis)) (UniProt Q6ZTR5)
Experiment: co-IP; protein from human testes (obstructive azoospermia patients) incubated with 7 ul of target antibodies overnight at 4°C, Protein A/G magnetic beads 2 h at room temperature, washed with 1 x PBS three times, immunoblot

binding: binds
B1: SEPTIN4 (protein, UniProt O43236 1-996)
chain: MVKTNKPGAKVAVSAQRGSEVTTNTSPQQGHGYVLASSHRSAAVSLNPSHRRSEAAHPTTPHSASDYPRSVSLQSGPGHYAVPTPRGPETGPRTESSRHSSPHLKSQKTQTLASHASSRQWKVSPPREEAARRGSESKSGREVGHHASSIPDAKSTHQLSFQDQKNNLQSQILEDDPPSKVQNPQGVRVPRRILSYPKDEAVQTEPIQRITTTSEIRSPRSPSLLEHGSSCVSADYQTAQRRVPVEESETGPYGPIPSKPKALYRNMNLDSLLKLSVLKDSDGVHRVSARVDPESLHKYSAYPETKPSAKVLVSSQVESNVRTPIRGNSEVGRRVTISPGVQSVEPTHHVTVPSVSEGSHKSSMFVTPEPIYKQQTQKPPEITYMSQGPTPRYPELSQKPSIHAELELTPRPLPPRSLPRYGPDSSWWPLLNPEVETPQSQLTTPDFEPKCSPSLDLLLSGFKIDSSPFCEDLKFQREKASLSPPSPPKEFPSWAPLSEVPQTPKHTCKQPIQRFTAFFLDVSEEMYNRVIWWLKDEEIKRFLEDTTDDGELSKFVKDFSGNASCHPPEAKTWASRPQVPEPRPQAPDLYDDDLEFRPPSRPQSSDNQQYFCAPAPLSPSARPRSPWGKLDPYDSSEDDKEYVGFATLPNQVHRKSVKKGFDFTLMVAGESGLGKSTLVNSLFLTDLYRDRKLLGAEERIMQTVEITKHAVDIEEKGVRLRLTIVDTPGFGDAVNNTECWKPVAEYIDQQFEQYFRDESGLNRKNIQDNRVHCCLYFISPFGHGLRPLDVEFMKALHQRVNIVPILAKADTLTPPEVDHKKRKIREEIEHFGIKIYQFPDCDSDEDEDFKLQDQALKESIPFAVIGSNTVVEARGRRVRGRLYPWGIVEVENPGHCDFVKLRTMLVRTHMQDLKDVTRETHYENYRAQCIQSMTRLVVKERNRNKLTRESGTDFPIPAVPPGTDPETEKLIREKDEELRRMQEMLHKIQKQMKENY

binding: binds
B2: CFAP69 (protein, UniProt A5D8W1 1-941)
chain: MWTEEAGATAEAQESGIRNKSSSSSQIPVVGVVTEDDEAQDVFKPMDLNRVIKLLEETDKDGLEEKQLKFVKKLVQCYQNGLPLRDLAQIFKILNLCSGKIKNQPRFIESAYDIIKLCGLPFLKKKVSDEITYAEDTANSIALLGDLMKIPSSELRIQICKCIVDFYHAEPPKKHIPGYQQASSSYKIQMAEVGGLAKTMVQSMTLLENQLVEKLWVLKVLQHLSTSEVNCTIMMKAQAASGICTHLNDPDPSGQLLFRSSEILWNLLEKSSKEEVIQQLSNLECLLALKEVFKNLFMRGFSHYDRQLRNDILVITTIIAQNPEAPMIECGFTKDLILFATFNEVKSQNLLVKGLKLSNSYEDFELKKLLFNVIVILCKDLPTVQLLIDGKVILALFTYVKKPEKQKIIDWSAAQHEELQLHAIATLSSVAPLLIEEYMSCQGNARVLAFLEWCESEDPFFSHGNSFHGTGGRGNKFAQMRYSLRLLRAVVYLEDETVNKDLCEKGTIQQMIGIFKNIISKPNEKEEAIVLEIQSDILLILSGLCENHIQRKEIFGTEGVDIVLHVMKTDPRKLQSGLGYNVLLFSTLDSIWCCILGCYPSEDYFLEKEGIFLLLDLLALNQKKFCNLILGIMVEFCDNPKTAAHVNAWQGKKDQTAASLLIKLWRKEEKELGVKRDKNGKIIDTKKPLFTSFQEEQKIIPLPANCPSIAVMDVSENIRAKIYAILGKLDFENLPGLSAEDFVTLCIIHRYLDFKIGEIWNEIYEEIKLEKLRPVTTDKKALEAITTASENIGKMVASLQSDIIESQACQDMQNEQKVYAKIQATHKQRELANKSWEDFLARTSNAKTLKKAKSLQEKAIEASRYHKRPQNAIFHQTHIKGLNTTVPSGGVVTVESTPARLVGGPLVDTDIALKKLPIRGGALQRVKAVKIVDAPKKSIPT
